One substance from paper PMC7900238, “A meet-up of two second messengers: the c-di-AMP receptor DarB controls (p)ppGpp synthesis in Bacillus subtilis” (Nature Communications, 2021) can be followed below.

These are yes or no findings as the source states them, for the method shown. In cells and extracts the contact can be indirect. These calls come from enrichment with a bait or labelling near it, and not all partners need be listed. No binding means not detected with the bait. Where a sequence is shown, tags or fusion partners need not be part of it.

This test deals with T1, 6×His-SUMO-DarB bound to the Ni-NTA column (B. subtilis 168) (UniProt O31698).
T1 sequence: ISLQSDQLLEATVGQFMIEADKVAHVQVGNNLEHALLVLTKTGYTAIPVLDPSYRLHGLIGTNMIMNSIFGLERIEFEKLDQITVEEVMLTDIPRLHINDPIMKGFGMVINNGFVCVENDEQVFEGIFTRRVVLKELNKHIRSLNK
Briefly: affinity purification with mass spectrometry; 6×His-SUMO-DarB bound to a Ni-NTA column; B. subtilis 168 crude extract (from LB) added; washed; eluted with an imidazole gradient; eluates analysed by mass spectrometry; empty vector pET-SUMO as control; only the target purified.

“CcpC, endogenous (B. subtilis (endogenous in strain 168))”: the binding result is “no binding”.
